For 28 compounds, AC50 and cell number change results are on record in PubChem BioAssay AID2685 (National Center for Advancing Translational Sciences (NCATS), 2010).

SMILES strings stand for the structures. The list shows a part of the results. These are further read-outs of the screen, such as a control signal, another cell line or another target. No call is given for them. Compounds called inactive in the main read-out are mostly missing here. Potencies come from curve fits of mixed quality, noted in brackets.

Broadly, the AC50 is the concentration giving half of the maximal activity seen. A low value points to greater potency.

This test is described as follows: qHTS Assay for Lipid Storage Modulators in Drosophila S3 Cells.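 As to cell number change: cells counted by Cell Tracker Red CMTPX staining in the red channel.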 The conditions noted are these: BODIPY lipid droplet fluorescence, 18-24 h; for cell number change: measured here: cell count max response, cells fed with added oleic acid. An excerpt:
NIH Molecular Libraries Probe Production Centers Network [MLPCN] NIH Chemical Genomics Center [NCGC] MLPCN Grant: 1 R03 MH085686-01 Assay Submitter (PI): Beller, Mathias; Max-Planck-Institut fur Biophysikalische Chemie NCGC Assay Overview: Storing lipids as a reservoir for energy or the anabolism of elementary metabolites is a common feature of probably all cells and is conserved from bacteria to humans. The universal cellular lipid storage organelle is the so-called lipid storage droplet (LD). Although ubiquitous, LDs share a simple structure composed of a hydrophobic core that harbors the storage lipids, which is shielded by a droplet-specific phospholipid monolayer to which proteins are attached. The current model of LD biogenesis involves an incorporation of the lipid core into the membrane leaflets of the endoplasmic reticulum (ER) followed by a subsequent budding-like maturation of a LD, which ultimately pinches off. Once released, LD volume can increase by localized lipogenesis or fusion of existing droplet. Storage lipids are re-mobilized enzymatically by lipase activity. Lipase regulation in the adipocyte is heavily studied and involves multiple components including catecholamine signaling, the LD-associated proteins Perilipin and comparative gene identification (CGI-58) and at least two lipases named hormone sensitive lipase (HSL) and adipocyte triglyceride lipase (ATGL). LD regulation outside of the adipocyte is poorly understood and only few components are known. However, there is an urgent need to learn more about ectopic fat depots as mislocalized storage of lipids, for example in the liver or muscle, is an eminent health problem associated with insulin resistance or the metabolic syndrome. We developed a laser-scanning cytometer assay to enable 1,536-well screening and combined the results of the small molecules screen with an RNAi database based on lipid storage.
Triacsin C (Sigma-Aldrich T-4540), an inhibitor of long-chain fatty acyl CoA synthetase that blocks synthesis of triglycerides, was used as a positive control for lipid under-storage. A total of 23 nL of compound solution of different concentrations were transferred to the assay plates using a Kalypsys pin tool equipped with a 1,536-pin array containing 10-nL slotted pins (FP1S10, 0.457-mm diameter, 50.8 mm long; V&P Scientific). One microliter of oleic acid (400 uM) was added, and the plate was lidded with stainless steel rubber gasket lined lids containing pinholes. […] Fluorescence was detected by excitation of the fluorophores with a 488-nm laser on an Acumen Explorer (TTP Lab Tech). The total intensity in channel 2 (500-530 nm) reflected lipid droplet accumulation. Cells were detected using channel 3 (575-640 nm) with 5-um width and 100-um depth filters. The ratio of the number of objects in PMT channel 2 over the number of objects in PMT channel 3 was also calculated. Percent activity was computed relative to an internal control (100% inhibited lipid droplet deposition due to the presence of 20 uM Triacsin C), which was added to 32 wells/plate.

Setting [1] is: measured here: cell number channel AC50, cells fed with added oleic acid.
Where [2] appears, read: measured here: lipid fluorescence (Fed channel) AC50, cells fed with added oleic acid.

With `CCOC(=O)C1CCN(C(=O)/C=C/c2ccccc2)CC1`, the AC50 under setting [1] is 0.00517 µM [falling, full curve, poor fit].

As to `COc1ccc(C)cc1S(=O)(=O)Nc1cccc(SC)c1`, the cell number change was -18.6%.

Take `N#CC(C#N)=C1C=C2C=C(N3CCOCC3)CCC2CC1` (stereo not given): the cell number change is -96.8%. Also, the AC50 under setting [1] is 9.2 µM [falling, partial curve]. For the same compound, under setting [2], the AC50 was 1.03 µM [falling, full curve].

Regarding `O=C(COC(=O)/C=C/c1cccc(Br)c1)NC1CCCCCC1`, the cell number change was -31.1%. Besides, the half-maximal activity concentration (AC50) under setting [1] was 0.411 µM [falling, full curve, poor fit]. Under setting [2], the concentration at half-maximal activity (AC50) is 0.058 µM [falling, full curve].

Turning to `CCC(C)NC(=O)c1ccccc1NC(=O)CN(c1ccc(OC)cc1)S(C)(=O)=O` (stereo not given), the cell number change worked out at 9.68%. Besides, under setting [1], the concentration at half-maximal activity (AC50) was 0.731 µM [falling, single point]. In addition, the AC50 under setting [2] was 29.1 µM [rising, single point].

Turning to `COc1cc(C(=O)N2CCN(C/C=C/c3ccccc3)CC2)cc(OC)c1C`, the cell number change worked out at 6.76%. The half-maximal activity concentration (AC50) under setting [2] was 2.91 µM [rising, partial curve].

`COc1cccc2cc(C(=O)Nc3ccccc3C(=O)N3CCOCC3)oc12`: the cell number change is 12.7%. The AC50 under setting [2] is 16.4 µM [falling, single point].

With `O=C(CCN1C(=O)/C(=C/c2cccs2)SC1=S)Nc1ccccn1`, the cell number change is 0.588%. For the same compound, the AC50 under setting [2] is 3.66 µM [falling, single point].

`O=C1c2ccccc2C(Nc2ccc(S(=O)(=O)N3CCOCC3)cc2)N1c1ccccn1` (stereo not given): the cell number change was -0.506%. The AC50 under setting [2] is 16.4 µM [rising, partial curve, poor fit].

As for `CCCOc1ccc2c(c1)C(=NN=C(N)N)c1cc(OCCC)ccc1-2`, the cell number change is -72%. The AC50 under setting [1] was 11.6 µM [falling, partial curve]. Under setting [2], the AC50 was 11.6 µM [falling, partial curve].

With `CC[C@H]1CN2CCc3cc(OC)c(OC)cc3C2C[C@@H]1C[C@H]1NCCc2cc(OC)c(OC)cc21` (stereo not given in full), the cell number change is -30%. The concentration at half-maximal activity (AC50) under setting [1] is 32.6 µM [falling, single point]. In addition, under setting [2], the AC50 was 18.4 µM [falling, partial curve, poor fit].

Turning to `Cn1nc(C(=O)Nc2sccc2C(N)=O)ccc1=O`, the cell number change turned out to be 1.57%.

On to `O=C(Cc1ccccc1)NC(=S)Nc1cccc(C(F)(F)F)c1`, for which the cell number change was -66.9%. In addition, the concentration at half-maximal activity (AC50) under setting [1] is 25.9 µM [falling, single point].

Regarding `Cc1nn(Cc2ccc(Cl)cc2Cl)c(C)c1NC(=O)Cn1nc([N+](=O)[O-])c(Cl)c1C`, the cell number change amounted to 6.3%. In addition, the AC50 under setting [2] is 0.0517 µM [rising, full curve, poor fit].

On to `CC(C)Oc1ccc(C(=O)CCN2CCCCC2)cc1`, for which the cell number change is -54%. Also, under setting [1], the AC50 was 14.6 µM [falling, single point]. In addition, under setting [2], the AC50 was 16.4 µM [falling, single point].

For the compound `O=C(/C=C/NNC(=O)c1cccc(Br)c1)c1ccccc1`, the cell number change amounted to 6.72%. In addition, the AC50 under setting [2] is 5.17 µM [rising, full curve].

As to `Nc1cc(C(F)(F)F)ccc1N1CCOCC1`, the cell number change turned out to be 22.1%. Also, under setting [1], the half-maximal activity concentration (AC50) was 4.11 µM [rising, single point]. Further, the half-maximal activity concentration (AC50) under setting [2] was 3.26 µM [rising, single point].

On to `Nc1ccc(C(=O)c2ccccc2C(=O)O)cc1Cl`, for which the cell number change is -7.85%. Moreover, under setting [2], the concentration at half-maximal activity (AC50) is 0.146 µM [falling, single point].

Turning to `Cc1ccc(CNC(=O)COC(=O)c2nc(-c3ccccc3)oc2C)cc1`, the cell number change was -47.1%. In addition, the concentration at half-maximal activity (AC50) under setting [1] is 29.1 µM [falling, single point]. Moreover, the concentration at half-maximal activity (AC50) under setting [2] was 29.1 µM [falling, single point].

Regarding `CCOC(=O)c1c(C)oc2c(CC(=O)c3ccccc3)c(Cl)c(O)c(O)c12`, the cell number change was -15.5%. Besides, the AC50 under setting [2] is 0.206 µM [falling, full curve, poor fit].

As to `COc1ccccc1NC(=O)CSc1nnc(CC(=O)Nc2ccccc2)n1C`, the cell number change was found to be 20.1%. The AC50 under setting [2] is 1.16 µM [rising, full curve, poor fit].

With `Cc1cc(C(=O)N2CCN(c3ccc([N+](=O)[O-])cc3)CC2)no1`, the cell number change was 9.61%. Also, the AC50 under setting [2] is 29.1 µM [rising, single point].

For the compound `COC(=O)[C@H](CC(C)C)NC(=O)NCCCc1ccccc1`, the cell number change is 0.544%. In addition, the AC50 under setting [2] was 0.00461 µM [falling, full curve, poor fit].

Consider `CN(CC(=O)N1CCCCC1)S(=O)(=O)c1ccc(Cl)cc1`, for which the cell number change was found to be 4.33%.

As to `CCc1nn(-c2cc(Cl)ccc2OC)c2c1C(=O)CCC2`, the cell number change was -0.533%. Under setting [2], the AC50 is 4.11 µM [falling, single point].

With `Cc1cnc(NC(=O)c2ccc3c(c2)C(=O)N(Cc2ccco2)C3=O)s1`, the cell number change is -23.2%.

As for `COc1cccc(C(=O)Oc2ccc(/C=N/NC(=O)c3ccncc3)cc2OC)c1`, the cell number change was -3.85%. In addition, the concentration at half-maximal activity (AC50) under setting [2] is 4.11 µM [falling, partial curve, poor fit].

For `COC(=O)C1=C(C)N(C)C(=O)NC1c1ccc([N+](=O)[O-])o1` (stereo not given), the cell number change turned out to be 41.1%. For the same compound, under setting [1], the AC50 was 29.1 µM [rising, single point]. For the same compound, the concentration at half-maximal activity (AC50) under setting [2] is 29.1 µM [rising, single point].
